In all, about 350,000 compounds went through this assay and about 220 (0.063%) were called active. The inconclusive results got no clear call from the source; some entries with a clear call stand among them for comparison. Calls follow the shape of the dose curve; as a rule, active = well fitted activation curve with a large enough effect; inconclusive = small, poorly fitted or top-dose-only effect; inactive = no such curve, though single readings can be large or run the other way. Where the call is inconclusive, the potency comes from a doubtful curve fit.
Assay: qHTS for Activators of Integrin-Mediated Alleviation for Muscular Dystrophy; also: nearly all actives have a fitted effect of over 60% in size;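 as to activation: 100% = response of the positive control SU9516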
Conditions: alpha7betagal myoblasts, beta-gal FDG fluorescence, 48 h; activation: at 38.3 µM (top of the series)
In short: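 Alpha7betagal+/- myoblasts (passage 13) were plated 16-24 hr, then exposed to compounds (1:260 dilution of DMSO stock) for 48 hours at 37C. After MPER lysis, β-galactosidase reporter activity was read as FDG fluorescence (ex 480/em 540) after 30 minutes.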
Potency is read from the fitted curve at half-maximal effect.

Row | SMILES | Potency | activation
1 | COCCn1c(N)c(C(=O)NCC2CCCO2)c2nc3ccccc3nc21 (stereo not given) | inactive | –
2 | COc1ccccc1NC(=O)Nc1ccc(C(N)=O)cc1 | inconclusive: 5.01 µM [activator, single point] | –
3 | CCc1oc2ccccc2c1C(=O)CCN1CCCCC1 | – | inactive: -12.5% [at 7.66 µM]
4 | Cc1ccc(NC2=CC(=O)CC(C)(C)C2)c(N)c1 | inconclusive: 28.2 µM [activator, partial curve, poor fit] | –
5 | Cc1ccc(NC(=O)COC(=O)c2cc(=O)c3ccccc3o2)cc1F | inconclusive: 28.2 µM [activator, single point] | –
6 | COCCN1Cc2cccc(C(=O)Nc3cccc(-c4nc5ccccc5[nH]4)c3)c2C1=O | inconclusive: 5.62 µM [activator, partial curve, poor fit] | –
7 | CC(=O)Oc1cc2c3c(c1)/C(=C1/SC(=S)NC1=O)C(=O)N3C(C)(C)C=C2C | inconclusive: 11.2 µM [activator, single point] | –
8 | CC(=O)Nc1cccc(OCCCNC(=O)c2ccc(F)cc2)c1 | inconclusive: 28.2 µM [activator, single point] | –
9 | O=C(CNc1cccc([N+](=O)[O-])c1)NC(=O)NC1CCCCC1 | inactive | –
10 | O=C1NC2(CCCCCC2)C(=O)N1Cc1cccc([N+](=O)[O-])c1 | inconclusive: 2.82 µM [activator, single point] | –
11 | CC(=O)N1CCc2cc(S(=O)(=O)NC(C(=O)NC(C)c3ccccc3)C(C)C)ccc21 (stereo not given) | inconclusive: 17.8 µM [activator, single point] | –
12 | Cc1cc(C)nc(Nc2cccc(Cl)c2)n1 | inconclusive: 3.16 µM [activator, single point] | –
13 | CC1CCN(S(=O)(=O)c2ccc(C(C)C)cc2)CC1 | inactive | –
14 | COc1cc(C(=O)N2CCN(S(=O)(=O)c3cc(C)ccc3C)CC2)ccc1OCC(=O)N1CCOCC1 | inconclusive: 4.47 µM [activator, single point] | –
15 | CC(C)Cn1c(SCC(=O)NC2CC2)nc2ccccc21 | inconclusive: 5.01 µM [activator, single point] | –
16 | O=C(NCCc1cccs1)C(c1ccccc1)c1ccccc1 | inactive | –
17 | O=C(c1cccc(S(=O)(=O)N2CCOCC2)c1)N1CCN(c2ccc(F)cc2)CC1 | inconclusive: 5.01 µM [activator, single point] | –
18 | Cn1cccc1CNC(=S)Nc1cc(F)cc(F)c1 | inactive | –
19 | CN1CCN(C2=Cc3ccccc3Sc3cc(F)c(F)cc32)CC1 | inactive | –
20 | CC(=O)C1=C(c2ccccc2)NC(=S)NC1c1ccc(O)c(O)c1 (stereo not given) | inconclusive: 8.91 µM [activator, partial curve, poor fit] | –
21 | CC(=O)Cn1ncc(N2CCCCC2)c(Cl)c1=O | inconclusive: 28.2 µM [activator, single point] | –
22 | O=C(CCC1CCCN(C(=O)c2ccco2)C1)NCc1ccccc1F (stereo not given) | inactive | –
23 | O=C(O)CSc1c2c(nc3cc(C(=O)NCCN4CCOCC4)ccc13)CCC2 | inconclusive: 12.6 µM [activator, single point] | –
24 | Cc1ccc(C(=O)CSc2nc(-c3ccccc3)ccc2C#N)cc1 | inactive | –

Arranged by SMILES length (low to high): part of the list above
Row | SMILES | Potency | activation
3 | CCc1oc2ccccc2c1C(=O)CCN1CCCCC1 | – | inactive: -12.5% [at 7.66 µM]
13 | CC1CCN(S(=O)(=O)c2ccc(C(C)C)cc2)CC1 | inactive | –
22 | O=C(CCC1CCCN(C(=O)c2ccco2)C1)NCc1ccccc1F (stereo not given) | inactive | –
20 | CC(=O)C1=C(c2ccccc2)NC(=S)NC1c1ccc(O)c(O)c1 (stereo not given) | inconclusive: 8.91 µM [activator, partial curve, poor fit] | –
10 | O=C1NC2(CCCCCC2)C(=O)N1Cc1cccc([N+](=O)[O-])c1 | inconclusive: 2.82 µM [activator, single point] | –

More compounds:

Row | SMILES | Potency | activation
25 | Nc1nc(SCC(=O)Nc2cc(Cl)ccc2Cl)n[nH]1 | inactive | –
26 | CCCCc1nc(NCCO)c(C#N)c2c1CCCC2 | inconclusive: 5.01 µM [activator, single point] | –
27 | CC(C)(C)C(=O)CN1C(=O)NC(c2ccccc2)(c2ccccc2)C1=O | inconclusive: 11.2 µM [activator, partial curve, poor fit] | –
28 | O=C(CSc1nc2c(c(=O)n1-c1ccccc1)SCC2)N1CCN(c2ccccc2)CC1 | inactive | –
29 | COc1ccc(C(CNC(=O)c2cccc(S(=O)(=O)Nc3ccc(F)cc3)c2)N2CCCC2)cc1 (stereo not given) | inactive | –
30 | C[C@H](NC(=O)c1ccc(Cl)c(S(=O)(=O)N2CCOCC2)c1)c1nc2ccccc2[nH]1 | inconclusive: 8.91 µM [activator, single point] | –
31 | CC(C)=CC(=O)Nc1nnc(-c2cccnc2)s1 | inconclusive: 8.91 µM [activator, partial curve] | –
32 | CN(CC(=O)Nc1ccccc1Cl)C(=O)CN1C(=O)C2CC=CCC2C1=O (stereo not given) | inconclusive: 6.31 µM [activator, partial curve, poor fit] | –
33 | CCN(Cc1ccccc1)C(=O)CCS(=O)(=O)c1ccc2c(c1)CCN2C(C)=O | inconclusive: 2 µM [activator, single point] | –
34 | O=C(CSc1ccc(-c2ccccc2)nn1)NC1CCCC1 | inconclusive: 11.2 µM [activator, partial curve, poor fit] | –
35 | Cc1ccc(C(=O)O)cc1NC(=S)NC(=O)c1ccc(-c2ccc(Cl)cc2)o1 | inactive | –
36 | O=S1(=O)C=C(N2CCOCC2)c2ccccc21 | inactive | –
37 | Cc1nnc(C)n1/N=C/c1ccc(-c2ccccc2)cc1 | inconclusive: 8.91 µM [activator, partial curve, poor fit] | –
38 | COc1ccc(C(=O)COC(=O)C(CCSC)NC(=O)COc2ccccc2)c(OC)c1 (stereo not given) | inconclusive: 2.82 µM [activator, single point] | –
39 | O=C(Nc1ccc(N2CCN(C(=O)c3ccc(Cl)cc3)CC2)cc1)c1cccnc1 | inactive | –
40 | CC(C)C(=O)C1=Cc2cc([N+](=O)[O-])ccc2OC1N1CCOCC1 (stereo not given) | inconclusive: 11.2 µM [activator, partial curve, poor fit] | –
41 | Fc1ccc(-c2csc(NC(=S)Nc3ccccc3)n2)cc1 | inconclusive: 10 µM [activator, partial curve, poor fit] | –
42 | CCN(CC)c1ccc(/C=N/NC(=O)CNC(=O)c2cccnc2)cc1 | inconclusive: 5.01 µM [activator, single point] | –
43 | N#Cc1cnc(NOCc2ccc(Cl)cc2)nc1 | inactive | –
44 | CCOc1ccc(/C=N/OCC(=O)Nc2cc(S(=O)(=O)N3CCOCC3)ccc2OC)cc1 | inconclusive: 10 µM [activator, single point] | –
45 | COc1ccc(Nc2nc(-c3ccccc3F)nc3ccccc23)cc1OC | inactive | –
46 | O=C(Nc1ccon1)Nc1cc(Cl)ccc1Cl | inconclusive: 3.16 µM [activator, single point] | –
47 | COc1ccc(C)cc1S(=O)(=O)N1c2ccccc2CC1C (stereo not given) | inconclusive: 0.501 µM [activator, full curve, poor fit] | –
48 | CCOC(=O)/C(C#N)=C/Nc1cc(C(=O)OCC)cc2c(OC)c(OC)ccc12 | inconclusive: 14.1 µM [activator, single point] | –

Row | SMILES | Potency | activation
49 | O=C(CCc1nc2sc3c(c2c(=O)[nH]1)CCCC3)NCCc1ccc(F)cc1 | inconclusive: 3.55 µM [activator, single point] | –
50 | CC(=O)c1ccccc1NC(=O)c1ccc(N2CCCC2=O)cc1 | inactive | –
51 | CSC[C@H]1CN(Cc2cccnc2)C(=O)[C@@H]1CC(=O)Nc1ccc(Br)cc1 | inactive | –
52 | Cc1cccc(NC(=S)N2CCC(c3nc4ccccc4o3)CC2)c1C | inactive | –
53 | O=S(=O)(c1cccs1)N1CCN(c2ccccc2F)CC1 | inconclusive: 14.1 µM [activator, single point] | –
54 | CN(C)CCN1C(=O)C(=O)/C(=C(/O)c2ccc(S(=O)(=O)N3CCOCC3)cc2)C1c1ccc(Br)cc1 (stereo not given) | inconclusive: 5.01 µM [activator, single point] | –
55 | Cc1cc(NC(=O)c2ccccc2Cl)n(C(C)(C)C)n1 | inconclusive: 10 µM [activator, partial curve, poor fit] | –
56 | N/C(=N\OCc1ccccc1)c1nonc1N | inconclusive: 12.6 µM [activator, partial curve, poor fit] | –
57 | O=C(OC(C(=O)Nc1ccc([N+](=O)[O-])cc1Br)c1ccccc1)c1ccccc1 (stereo not given) | inactive | –
58 | O=C(Cc1c(O)c2ccccc2[nH]c1=O)OC1CCCCC1 | inconclusive: 14.1 µM [activator, single point] | –
59 | Cc1nc(N2CCC(C)CC2)c(C#N)c(C)c1[N+](=O)[O-] | inconclusive: 1.58 µM [activator, partial curve, poor fit] | –
60 | CN(C)CCCOC(=O)c1sc2ccccc2c1Cl | inactive | –
61 | COc1cc(C2NC(=S)NC3=C2C(=O)CCC3)ccc1O (stereo not given) | inconclusive: 3.55 µM [activator, single point] | –
62 | COc1cccc2c1Oc1cc([N+](=O)[O-])cc(N(C)C(C)=O)c1C=C2 | inconclusive: 11.2 µM [activator, partial curve, poor fit] | –
63 | O=C(NC1CCCC1)c1cc(=O)[nH]c2ccccc12 | inactive | –
64 | COc1ccc(C)cc1NC(=O)N1CCCc2ccccc21 | inconclusive: 3.16 µM [activator, full curve, poor fit] | –
65 | O=C(Nc1cccc(C(=O)Nc2ccccc2C(=O)O)c1)c1cccc(Cl)c1 | inconclusive: 5.01 µM [activator, single point] | –
66 | Cc1cc(=O)[nH]c2ccc(S(=O)(=O)NC3CCCCC3)cc12 | inconclusive: 5.01 µM [activator, single point] | –
67 | COc1ccc(NS(=O)(=O)c2cccc(C(=O)NN=C(C)c3ccco3)c2)cc1 | inactive | –
68 | O=C(NNC(=O)c1ccc(Br)cc1)c1ccncc1 | inconclusive: 3.55 µM [activator, full curve, poor fit] | –
69 | Cc1ccc(S(=O)(=O)N2CCC(C(=O)NCCN3CCOCC3)CC2)cc1C | inconclusive: 12.6 µM [activator, partial curve, poor fit] | –
70 | CCOC(=O)CSc1nc(C)c(Oc2ccc(Cl)cc2Cl)c(=O)[nH]1 | inconclusive: 3.16 µM [activator, full curve, poor fit] | –

— PubChem BioAssay AID624291 (National Center for Advancing Translational Sciences (NCATS), 2012)
